{"source": "patent US20090081704A1", "about": "“COMPOSITIONS, METHODS AND KITS FOR REAL-TIME ENZYME ASSAYS USING CHARGED MOLECULES” (priority 2004, published 2009)", "molecules": {"B1": {"name": "MPB: charge-balance molecule, Myelin Basic Protein (Upstate USA, Inc. cat. no: 13-104), positively charged (+18) (protein, UniProt P02687 1-169, looked up)", "Myelin basic protein": "AAQKRPSQRSKYLASASTMDHARHGFLPRHRDTGILDSLGRFFGSDRGAPKRGSGKDGHHAARTTHYGSLPQKAQGHRPQDENPVVHFFKNIVTPRTPPPSQGKGRGLSLSRFSWGAEGQKPGFGYGGRASDYKSAHKGLKGHDAQGTLSKIFKLGGRDSRSGSPMARR"}}, "assay": "Quenching of hydrophobic molecule fluorescence by added charge-balance molecule (micelle formation)", "type": "physicochemical", "data": [{"molecule": "B1", "values": [{"measurement": "quenching of fluorescence of hydrophobic molecule C16OOOK(Dye2)EEIYGEF-amide", "setting": "1:1 molar ratio or above to hydrophobic molecule (10 μM)", "result": "almost complete quenching"}, {"measurement": "quenching of fluorescence of hydrophobic molecule C16OOOK(Dye2)EEIYGEF-amide", "setting": "less than 1:1 molar ratio to hydrophobic molecule (10 μM)", "result": "quenches the fluorescence"}]}]}
